Experimental data: PMC6177467
These are yes or no findings as the source states them, for the method shown. Some entries that bind do so weakly or less than the wild type.

The chains behind the UniProt entries cited, without tags or fusion partners.
UniProt Q99728: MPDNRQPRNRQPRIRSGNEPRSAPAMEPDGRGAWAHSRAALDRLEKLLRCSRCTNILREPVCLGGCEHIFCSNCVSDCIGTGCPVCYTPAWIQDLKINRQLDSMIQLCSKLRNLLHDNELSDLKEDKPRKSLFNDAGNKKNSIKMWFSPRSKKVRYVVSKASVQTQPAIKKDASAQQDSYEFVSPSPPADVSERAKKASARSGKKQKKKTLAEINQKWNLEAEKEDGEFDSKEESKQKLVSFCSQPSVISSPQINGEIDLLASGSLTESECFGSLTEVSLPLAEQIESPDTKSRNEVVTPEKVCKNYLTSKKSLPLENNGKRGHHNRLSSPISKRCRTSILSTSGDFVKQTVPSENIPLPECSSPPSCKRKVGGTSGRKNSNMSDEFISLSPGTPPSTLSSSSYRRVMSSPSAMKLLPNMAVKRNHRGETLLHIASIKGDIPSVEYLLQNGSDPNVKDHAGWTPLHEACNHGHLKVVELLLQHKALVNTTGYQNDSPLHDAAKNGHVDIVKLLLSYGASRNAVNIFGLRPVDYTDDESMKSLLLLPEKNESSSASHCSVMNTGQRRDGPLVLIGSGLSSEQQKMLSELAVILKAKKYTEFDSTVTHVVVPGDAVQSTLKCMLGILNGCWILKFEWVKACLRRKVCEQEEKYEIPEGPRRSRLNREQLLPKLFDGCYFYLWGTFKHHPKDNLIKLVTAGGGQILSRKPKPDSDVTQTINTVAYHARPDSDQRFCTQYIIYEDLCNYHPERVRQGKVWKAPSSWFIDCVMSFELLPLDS
UniProt P38398: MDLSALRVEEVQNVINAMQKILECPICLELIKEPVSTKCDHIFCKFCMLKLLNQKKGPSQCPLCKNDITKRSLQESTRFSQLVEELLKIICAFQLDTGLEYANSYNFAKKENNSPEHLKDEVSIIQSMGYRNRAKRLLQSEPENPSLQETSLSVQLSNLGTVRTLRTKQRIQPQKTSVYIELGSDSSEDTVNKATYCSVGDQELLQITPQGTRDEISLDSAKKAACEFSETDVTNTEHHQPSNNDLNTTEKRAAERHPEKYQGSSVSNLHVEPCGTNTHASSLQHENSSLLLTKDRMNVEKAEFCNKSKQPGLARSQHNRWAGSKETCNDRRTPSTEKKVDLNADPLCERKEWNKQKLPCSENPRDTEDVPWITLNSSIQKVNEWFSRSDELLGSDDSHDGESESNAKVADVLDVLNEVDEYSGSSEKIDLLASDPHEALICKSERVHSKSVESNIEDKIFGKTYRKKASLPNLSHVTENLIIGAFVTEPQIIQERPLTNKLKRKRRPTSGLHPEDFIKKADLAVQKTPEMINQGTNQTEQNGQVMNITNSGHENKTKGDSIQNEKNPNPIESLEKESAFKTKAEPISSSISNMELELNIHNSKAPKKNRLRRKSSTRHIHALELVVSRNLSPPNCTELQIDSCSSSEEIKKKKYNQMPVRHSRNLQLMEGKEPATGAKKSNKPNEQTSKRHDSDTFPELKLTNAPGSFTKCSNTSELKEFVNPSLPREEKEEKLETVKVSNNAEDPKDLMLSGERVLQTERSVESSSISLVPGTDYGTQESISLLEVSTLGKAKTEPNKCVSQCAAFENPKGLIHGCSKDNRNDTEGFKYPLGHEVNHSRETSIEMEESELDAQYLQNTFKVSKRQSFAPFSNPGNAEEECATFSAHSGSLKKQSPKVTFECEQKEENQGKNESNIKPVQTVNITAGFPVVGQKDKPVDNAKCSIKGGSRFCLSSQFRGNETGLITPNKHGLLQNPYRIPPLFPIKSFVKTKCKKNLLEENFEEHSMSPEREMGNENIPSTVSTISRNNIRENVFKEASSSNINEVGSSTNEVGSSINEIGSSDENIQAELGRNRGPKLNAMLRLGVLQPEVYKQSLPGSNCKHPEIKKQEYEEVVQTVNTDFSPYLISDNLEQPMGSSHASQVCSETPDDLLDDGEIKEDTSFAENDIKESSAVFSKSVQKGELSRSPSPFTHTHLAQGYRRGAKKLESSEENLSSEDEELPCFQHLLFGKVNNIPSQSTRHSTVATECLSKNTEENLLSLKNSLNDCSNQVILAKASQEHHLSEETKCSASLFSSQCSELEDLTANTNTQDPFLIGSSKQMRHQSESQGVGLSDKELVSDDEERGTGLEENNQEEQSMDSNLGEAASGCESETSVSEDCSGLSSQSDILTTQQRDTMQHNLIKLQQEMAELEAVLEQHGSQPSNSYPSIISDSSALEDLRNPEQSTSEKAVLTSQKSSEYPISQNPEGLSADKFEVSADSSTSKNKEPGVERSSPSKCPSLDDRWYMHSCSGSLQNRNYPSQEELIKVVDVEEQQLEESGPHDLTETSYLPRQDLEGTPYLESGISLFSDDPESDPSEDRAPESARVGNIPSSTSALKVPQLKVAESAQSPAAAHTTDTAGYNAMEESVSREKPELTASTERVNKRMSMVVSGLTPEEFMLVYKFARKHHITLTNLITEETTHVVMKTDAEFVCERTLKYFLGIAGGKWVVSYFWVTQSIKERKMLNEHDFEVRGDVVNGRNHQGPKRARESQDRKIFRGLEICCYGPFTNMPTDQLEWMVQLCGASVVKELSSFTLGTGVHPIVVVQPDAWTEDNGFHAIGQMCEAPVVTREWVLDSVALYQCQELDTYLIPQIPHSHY
UniProt P51587: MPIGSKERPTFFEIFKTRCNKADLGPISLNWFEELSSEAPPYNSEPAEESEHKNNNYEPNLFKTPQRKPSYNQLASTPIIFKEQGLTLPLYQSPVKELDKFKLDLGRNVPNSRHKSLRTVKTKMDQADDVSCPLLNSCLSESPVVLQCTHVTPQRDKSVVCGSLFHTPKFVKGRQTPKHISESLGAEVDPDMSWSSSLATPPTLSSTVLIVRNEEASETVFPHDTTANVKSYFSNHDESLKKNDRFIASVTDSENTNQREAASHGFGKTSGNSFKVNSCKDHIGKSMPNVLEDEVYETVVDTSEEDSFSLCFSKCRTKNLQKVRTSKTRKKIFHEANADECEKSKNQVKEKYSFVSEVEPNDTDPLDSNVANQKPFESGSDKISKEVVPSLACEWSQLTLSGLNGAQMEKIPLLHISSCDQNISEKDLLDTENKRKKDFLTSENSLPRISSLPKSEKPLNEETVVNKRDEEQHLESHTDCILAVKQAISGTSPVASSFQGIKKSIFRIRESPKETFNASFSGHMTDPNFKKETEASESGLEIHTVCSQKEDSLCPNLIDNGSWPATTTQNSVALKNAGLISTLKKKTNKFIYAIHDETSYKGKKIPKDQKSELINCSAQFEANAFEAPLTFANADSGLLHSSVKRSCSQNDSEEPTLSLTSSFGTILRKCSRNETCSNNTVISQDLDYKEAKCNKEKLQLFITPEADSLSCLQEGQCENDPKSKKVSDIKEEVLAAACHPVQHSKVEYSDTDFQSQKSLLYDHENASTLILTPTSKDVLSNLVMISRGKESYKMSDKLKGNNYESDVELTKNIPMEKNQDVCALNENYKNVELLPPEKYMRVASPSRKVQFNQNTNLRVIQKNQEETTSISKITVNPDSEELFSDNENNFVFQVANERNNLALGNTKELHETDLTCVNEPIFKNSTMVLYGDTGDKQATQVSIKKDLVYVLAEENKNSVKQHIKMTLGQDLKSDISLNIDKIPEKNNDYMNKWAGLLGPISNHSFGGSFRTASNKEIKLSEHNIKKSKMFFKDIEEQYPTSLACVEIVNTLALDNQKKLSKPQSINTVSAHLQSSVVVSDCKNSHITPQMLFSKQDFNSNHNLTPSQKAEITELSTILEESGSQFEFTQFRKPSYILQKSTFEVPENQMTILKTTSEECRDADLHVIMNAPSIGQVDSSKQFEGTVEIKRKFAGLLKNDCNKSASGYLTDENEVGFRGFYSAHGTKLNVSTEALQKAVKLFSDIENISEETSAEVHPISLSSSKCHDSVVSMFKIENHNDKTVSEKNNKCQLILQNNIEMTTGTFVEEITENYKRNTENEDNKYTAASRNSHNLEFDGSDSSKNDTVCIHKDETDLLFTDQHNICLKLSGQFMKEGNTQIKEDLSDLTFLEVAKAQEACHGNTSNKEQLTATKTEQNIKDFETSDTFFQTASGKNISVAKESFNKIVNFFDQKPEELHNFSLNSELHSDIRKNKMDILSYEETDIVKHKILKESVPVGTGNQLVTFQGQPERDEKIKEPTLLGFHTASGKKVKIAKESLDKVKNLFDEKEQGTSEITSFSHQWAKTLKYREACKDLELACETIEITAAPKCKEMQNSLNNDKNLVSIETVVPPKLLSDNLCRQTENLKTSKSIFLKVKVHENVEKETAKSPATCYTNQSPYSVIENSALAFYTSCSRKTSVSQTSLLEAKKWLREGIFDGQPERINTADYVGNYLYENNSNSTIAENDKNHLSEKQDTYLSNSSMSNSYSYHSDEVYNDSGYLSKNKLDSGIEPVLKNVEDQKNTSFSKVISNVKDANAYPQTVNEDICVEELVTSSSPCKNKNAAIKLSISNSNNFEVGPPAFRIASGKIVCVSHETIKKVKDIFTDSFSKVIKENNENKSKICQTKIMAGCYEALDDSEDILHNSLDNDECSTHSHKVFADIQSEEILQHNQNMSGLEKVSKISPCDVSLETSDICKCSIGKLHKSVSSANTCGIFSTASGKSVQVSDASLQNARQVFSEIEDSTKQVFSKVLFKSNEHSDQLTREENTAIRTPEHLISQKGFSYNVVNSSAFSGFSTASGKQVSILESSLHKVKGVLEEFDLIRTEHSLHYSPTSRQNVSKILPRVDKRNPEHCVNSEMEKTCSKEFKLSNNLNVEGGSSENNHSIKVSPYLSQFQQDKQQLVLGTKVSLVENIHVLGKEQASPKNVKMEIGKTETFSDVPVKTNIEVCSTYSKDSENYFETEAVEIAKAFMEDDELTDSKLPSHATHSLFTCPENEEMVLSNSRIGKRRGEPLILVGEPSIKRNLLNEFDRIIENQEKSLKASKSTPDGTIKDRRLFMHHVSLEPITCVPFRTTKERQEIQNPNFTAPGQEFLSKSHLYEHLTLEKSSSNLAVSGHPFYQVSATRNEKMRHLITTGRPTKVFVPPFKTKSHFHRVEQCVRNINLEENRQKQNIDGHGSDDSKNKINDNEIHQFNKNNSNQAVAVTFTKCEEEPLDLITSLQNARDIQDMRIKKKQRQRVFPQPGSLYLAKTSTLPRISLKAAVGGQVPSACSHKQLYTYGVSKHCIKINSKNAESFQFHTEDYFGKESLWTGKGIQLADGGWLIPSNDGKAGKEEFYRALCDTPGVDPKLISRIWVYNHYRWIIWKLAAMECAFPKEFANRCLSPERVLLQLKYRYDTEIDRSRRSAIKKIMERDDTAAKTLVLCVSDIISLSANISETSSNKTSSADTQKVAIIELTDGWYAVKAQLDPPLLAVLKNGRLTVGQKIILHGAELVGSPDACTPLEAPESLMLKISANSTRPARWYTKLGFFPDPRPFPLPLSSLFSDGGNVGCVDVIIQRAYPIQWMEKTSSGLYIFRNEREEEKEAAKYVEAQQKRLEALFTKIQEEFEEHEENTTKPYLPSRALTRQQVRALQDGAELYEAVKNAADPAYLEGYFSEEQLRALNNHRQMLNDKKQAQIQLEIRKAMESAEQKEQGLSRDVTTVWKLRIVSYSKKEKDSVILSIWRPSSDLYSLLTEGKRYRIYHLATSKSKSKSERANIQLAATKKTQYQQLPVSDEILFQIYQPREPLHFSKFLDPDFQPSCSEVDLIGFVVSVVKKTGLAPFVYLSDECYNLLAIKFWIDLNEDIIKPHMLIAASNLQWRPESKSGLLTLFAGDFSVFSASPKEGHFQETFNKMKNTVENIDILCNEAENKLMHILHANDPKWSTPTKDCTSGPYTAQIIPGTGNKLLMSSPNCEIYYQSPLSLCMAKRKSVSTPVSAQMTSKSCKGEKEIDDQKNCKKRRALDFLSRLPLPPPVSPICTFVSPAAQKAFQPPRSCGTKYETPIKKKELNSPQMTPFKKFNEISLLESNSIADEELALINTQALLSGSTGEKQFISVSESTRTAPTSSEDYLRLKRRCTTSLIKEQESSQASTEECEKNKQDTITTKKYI

Tests used:
Experiment in all cases: peptide or protein array; antibody array: cell cycle antibody array (Hypromatrix, 60 antibodies) and/or custom array (40 antibodies) immobilised on nitrocellulose, incubated with MM cell lysate, then with HRP-conjugated anti-APEX1 or anti-APEX2 antibody; partners identified by their address on the array
[1] = biological target: BARD1 (human (endogenous in MM cells)) (UniProt Q99728)
[2] = biological target: BRCA1 (human (endogenous in MM cells)) (UniProt P38398)
[3] = biological target: BRCA2 (human (endogenous in MM cells)) (UniProt P51587)
[4] = biological target: P53 (human (endogenous in MM cells)) (UniProt P04637)
[5] = biological target: T1, P73 (human (endogenous in ARP)) (UniProt O15350)
T1 sequence: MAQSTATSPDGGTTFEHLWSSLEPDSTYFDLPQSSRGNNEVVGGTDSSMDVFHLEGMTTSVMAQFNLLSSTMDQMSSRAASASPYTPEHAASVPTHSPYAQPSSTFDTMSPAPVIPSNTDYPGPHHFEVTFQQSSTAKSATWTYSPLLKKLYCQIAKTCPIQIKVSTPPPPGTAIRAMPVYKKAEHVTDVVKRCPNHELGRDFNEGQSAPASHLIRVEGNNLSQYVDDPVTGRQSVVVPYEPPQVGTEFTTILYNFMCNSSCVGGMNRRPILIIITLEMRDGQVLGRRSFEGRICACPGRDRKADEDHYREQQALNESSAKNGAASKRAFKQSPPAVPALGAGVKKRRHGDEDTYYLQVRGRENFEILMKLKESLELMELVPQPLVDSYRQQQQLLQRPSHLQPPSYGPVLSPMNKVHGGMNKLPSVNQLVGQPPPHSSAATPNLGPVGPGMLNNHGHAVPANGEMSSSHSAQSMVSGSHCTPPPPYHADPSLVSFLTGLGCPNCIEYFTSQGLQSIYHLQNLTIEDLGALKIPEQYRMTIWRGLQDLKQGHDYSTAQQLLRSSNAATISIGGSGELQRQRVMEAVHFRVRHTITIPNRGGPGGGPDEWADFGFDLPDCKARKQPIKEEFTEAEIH

[6] = biological target: T2, RAD52 (human (endogenous in MM cells)) (UniProt P43351)
T2 sequence: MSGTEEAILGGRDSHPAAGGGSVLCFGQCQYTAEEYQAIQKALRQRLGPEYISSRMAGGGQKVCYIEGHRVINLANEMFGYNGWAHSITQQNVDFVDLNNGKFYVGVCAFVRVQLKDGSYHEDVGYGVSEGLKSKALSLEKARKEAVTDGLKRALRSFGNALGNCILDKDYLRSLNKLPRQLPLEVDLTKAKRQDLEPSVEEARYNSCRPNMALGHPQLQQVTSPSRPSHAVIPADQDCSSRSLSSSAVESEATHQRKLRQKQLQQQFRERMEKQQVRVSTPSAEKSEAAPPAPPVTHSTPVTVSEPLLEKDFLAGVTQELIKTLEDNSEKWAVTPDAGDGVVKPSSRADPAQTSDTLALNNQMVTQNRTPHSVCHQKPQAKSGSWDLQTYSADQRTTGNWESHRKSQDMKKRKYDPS

B1: APEX2 (enzyme, UniProt Q9UBZ4 1-518)
chain: MLRVVSWNINGIRRPLQGVANQEPSNCAAVAVGRILDELDADIVCLQETKVTRDALTEPLAIVEGYNSYFSFSRNRSGYSGVATFCKDNATPVAAEEGLSGLFATQNGDVGCYGNMDEFTQEELRALDSEGRALLTQHKIRTWEGKEKTLTLINVYCPHADPGRPERLVFKMRFYRLLQIRAEALLAAGSHVIILGDLNTAHRPIDHWDAVNLECFEEDPGRKWMDSLLSNLGCQSASHVGPFIDSYRCFQPKQEGAFTCWSAVTGARHLNYGSRLDYVLGDRTLVIDTFQASFLLPEVMGSDHCPVGAVLSVSSVPAKQCPPLCTRFLPEFAGTQLKILRFLVPLEQSPVLEQSTLQHNNQTRVQTCQNKAQVRSTRPQPSQVGSSRGQKNLKSYFQPSPSCPQASPDIELPSLPLMSALMTPKTPEEKAVAKVVKGQAKTSEAKDEKELRTSFWKSVLAGPLRTPLCGGHREPCVMRTVKKPGPNLGRRFYMCARPRGPPTDPSSRCNFFLWSRPS
Question: Which results are given for B1?
Answer: binding [1]: binds; binding [2]: binds; binding [3]: binds; binding [4]: binds; binding [5]: no binding; binding [6]: binds
